# No constants are given. Whether binding was seen depends on the method and setting. Some entries that bind do so weakly or less than the wild type.
# Amino acid sequences for entries named in this document (tags omitted). Residues count along the entry.
# UniProt Q02223, residues 1-54: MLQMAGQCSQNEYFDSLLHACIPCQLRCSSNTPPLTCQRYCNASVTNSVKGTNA
# Biological target: BCMA antigen (UniProt Q02223)
# Test: flow cytometry, CAR-T cells stained with BCMA antigen
binder,measurement,value
"CAR-J1 (scFv, V domains shown) VH: QVQLQQSGGGLVQPGGSLKLSCAASGIDFSRYWMSWVRRAPGKGLEWIGEINPDSSTINYAPSLKDKFIISRDNAKNTLYLQMSKVRSEDTALYYCASLYYDYGDAMDYWGQGTSVTVSS VL: DIVMTQSQRFMTTSVGDRVSVTCKASQSVDSNVAWYQQKPRQSPKALIFSASLRFSGVPARFTGSGSGTDFTLTISNLQSEDLAEYFCQQYNNYPLTFGAGTKLELK",binding,binds

# Reference: patent publication US20220202864A1
